Assay results: patent US20050142141A1 (University of California, published 2005)
These are yes or no findings as the source states them, for the method shown. Some results given as binding are weak or reduced against the parent protein; the word gives no strength.

Chains of the proteins cited; added tags and fusions are not shown. Residues count along the entry.
UniProt P06213, residues 28-1382: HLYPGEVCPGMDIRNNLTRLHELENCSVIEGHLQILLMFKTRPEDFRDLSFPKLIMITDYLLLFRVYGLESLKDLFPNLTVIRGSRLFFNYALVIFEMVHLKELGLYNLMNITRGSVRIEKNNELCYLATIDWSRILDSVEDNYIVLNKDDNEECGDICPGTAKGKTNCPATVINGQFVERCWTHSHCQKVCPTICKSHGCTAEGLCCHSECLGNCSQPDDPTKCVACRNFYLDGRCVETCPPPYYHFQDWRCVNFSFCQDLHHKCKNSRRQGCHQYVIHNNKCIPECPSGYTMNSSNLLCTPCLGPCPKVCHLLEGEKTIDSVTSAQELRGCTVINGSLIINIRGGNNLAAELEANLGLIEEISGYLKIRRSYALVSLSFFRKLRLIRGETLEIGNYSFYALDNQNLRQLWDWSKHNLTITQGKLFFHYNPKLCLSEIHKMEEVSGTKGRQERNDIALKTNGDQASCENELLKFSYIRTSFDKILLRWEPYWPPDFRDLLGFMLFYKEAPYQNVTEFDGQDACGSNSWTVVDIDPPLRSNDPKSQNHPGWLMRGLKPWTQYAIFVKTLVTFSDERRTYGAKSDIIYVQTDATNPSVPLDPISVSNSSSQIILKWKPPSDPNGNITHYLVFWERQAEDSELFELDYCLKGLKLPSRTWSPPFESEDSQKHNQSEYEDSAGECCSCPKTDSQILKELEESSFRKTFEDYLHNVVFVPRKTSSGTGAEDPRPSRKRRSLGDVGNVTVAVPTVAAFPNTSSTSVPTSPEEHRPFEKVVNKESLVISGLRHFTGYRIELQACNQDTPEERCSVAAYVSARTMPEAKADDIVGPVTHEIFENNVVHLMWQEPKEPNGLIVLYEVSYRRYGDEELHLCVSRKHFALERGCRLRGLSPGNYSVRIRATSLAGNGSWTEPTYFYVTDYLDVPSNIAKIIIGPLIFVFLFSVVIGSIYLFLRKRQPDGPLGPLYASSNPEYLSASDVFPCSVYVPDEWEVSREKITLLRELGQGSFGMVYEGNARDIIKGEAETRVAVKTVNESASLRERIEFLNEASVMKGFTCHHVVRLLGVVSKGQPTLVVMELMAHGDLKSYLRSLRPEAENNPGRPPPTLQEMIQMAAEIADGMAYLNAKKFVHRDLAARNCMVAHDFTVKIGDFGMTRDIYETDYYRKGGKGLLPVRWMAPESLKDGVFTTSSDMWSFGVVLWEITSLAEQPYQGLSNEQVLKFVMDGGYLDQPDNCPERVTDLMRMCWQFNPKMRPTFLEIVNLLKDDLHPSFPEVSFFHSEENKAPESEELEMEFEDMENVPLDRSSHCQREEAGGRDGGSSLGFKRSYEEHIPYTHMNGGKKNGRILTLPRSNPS

Biological target: human insulin receptor on isolated human brain capillaries (human) (UniProt P06213)
Experiment: radioreceptor assay on isolated human brain capillaries (FIG. 2B)

binding: binds
B1: Version 5 humanized HIRMAb (antibody, human IgG1, V domains shown)
VH: QVQLLESGAELVRPGSSVKISCKASGYTFTNYDIHWVKQRPGQGLEWIGWIYPGDGSTKYNEKFKGKATLTADKSSSTAYMHLSSLTSEKSAVYFCAREWAYWGQGTTVTVSA
VL: DIQMTQSPSSLSASVGERVTITCRASQDIGGNLYWYQQKPGKAPKLLIYATSSLDSGVPSRFSGSGSGTDYTFTISSLQPEDIATYYCLQYSSSPWTFGQGTKVEIKR
notes: also called version 5 HIRMAb; Version 5 humanized 83-14 HIRMAb
